These are yes or no findings as the source states them, for the method shown. Binding seen in cells or lysates may run through a third protein. Some entries that bind do so weakly or less than the wild type.
Tests used:
FLAG-PAXX (human) = FLAG-PAXX (human) (UniProt Q9BUH6); assay: co-IP; anti-FLAG M2 agarose IP of the FLAG-tagged bait from detergent-soluble nuclear (nucleoplasmic) or benzonase-treated soluble chromatin extracts of stably or transiently transfected HEK293/HEK293F cells (FLAG-PAXX also in U2OS); elution with 3X FLAG peptide; immunoblot
[1] = molecular target: PAXX (endogenous) (human (endogenous in HEK293F)) (UniProt Q9BUH6); assay: co-IP; endogenous proteins; HEK293F soluble nuclear, nucleoplasmic or soluble chromatin extracts; IP with anti-Pol λ, anti-PAXX, anti-XLF or anti-XRCC4 (rIgG or mIgG as control); cells untreated or 0-60 min after 10 Gy X-ray; immunoblot
[2] = molecular target: FLAG-PAXX (overexpressed in U2OS cells) (human) (UniProt Q9BUH6); assay: co-IP; anti-FLAG M2 agarose IP of the FLAG-tagged bait from detergent-soluble nuclear (nucleoplasmic) or benzonase-treated soluble chromatin extracts of stably or transiently transfected HEK293/HEK293F cells (FLAG-PAXX also in U2OS); elution with 3X FLAG peptide; immunoblot

The chains behind the UniProt entries cited, without tags or fusion partners.
UniProt Q9BUH6: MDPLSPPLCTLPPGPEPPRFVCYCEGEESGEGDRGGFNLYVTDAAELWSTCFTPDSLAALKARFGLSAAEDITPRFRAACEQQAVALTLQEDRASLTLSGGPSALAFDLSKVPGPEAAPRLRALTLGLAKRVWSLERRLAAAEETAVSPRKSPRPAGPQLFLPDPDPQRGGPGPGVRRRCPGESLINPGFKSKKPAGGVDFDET

DNA polymerase λ (endogenous) (from UniProt Q9UGP5 1-575) (enzyme)
binding (FLAG-PAXX (human)): binds | binding [1]: binds

Pol λ (in U2OS cells) (from UniProt Q9UGP5 1-575) (enzyme)
binding [2]: binds

Reference: PMC6155126
